Assay results reported in the supplement of paper PMC6331611.
± gives the standard deviation of the averaged measurements. Whole data set: some 1,600 compounds, median “normalized growth (OD600, IQM-normalized) in LPM” near 1, cut for the lowest 2% near 0.014. The list shows a part of the results.

Each molecule was assayed on Salmonella enterica serovar Typhimurium SL1344 (assay: normalized growth (OD600, IQM-normalized) in LPM (fraction of plate interquartile mean); higher = more bacterial growth (less inhibition)). Details: LPM pH 5.8; 10 µM; 16 h.

O=C(N/N=C/c1ccc([N+](=O)[O-])o1)c1cc([N+](=O)[O-])cc([N+](=O)[O-])c1O was tested. Which normalized growth did it give?
Its normalized growth is 0.842 ± 0.44.

For COC(=O)C1=CCCN(C)C1, which normalized growth is on record?
Its normalized growth is 1.01 ± 0.029.

Which normalized growth does the source give for CC(C)(C)NCC(O)c1cc(Cl)c(N)c(Cl)c1 (stereo not given) here?
The normalized growth was 0.932 ± 0.085.

For COc1cc2c(cc1OC)[C@@]13CCN4CC5=CCO[C@H]6CC(=O)N2[C@H]1[C@H]6[C@H]5C[C@H]43, which normalized growth is on record?
Its normalized growth is 1.1 ± 0.037.

With CNCC(=O)c1ccc(O)c(O)c1 as the molecule, how does the normalized growth read?
Its normalized growth is 0.841 ± 0.04.

Which normalized growth does the source give for O=C(NC(=O)c1c(F)cccc1F)Nc1cc(Cl)c(OC(F)(F)C(F)C(F)(F)F)cc1Cl (stereo not given) here?
The normalized growth was 1.5 ± 0.3.

For COc1ccc(CCN2CCC(Nc3nc4ccccc4n3Cc3ccc(F)cc3)CC2)cc1, which normalized growth is on record?
Its normalized growth is 1.09 ± 0.02.

With CC(=O)O[C@H]1C[C@H](O[C@H]2[C@@H](O)C[C@H](O[C@H]3[C@@H](O)C[C@H](O[C@H]4CC[C@@]5(C)[C@H](CC[C@@H]6[C@@H]5C[C@@H](O)[C@]5(C)[C@@H](C7=CC(=O)OC7)CC[C@]65O)C4)O[C@@H]3C)O[C@@H]2C)O[C@H](C)[C@H]1O[C@@H]1O[C@H](CO)[C@@H](O)[C@H](O)[C@H]1O as the molecule, how does the normalized growth read?
The normalized growth was 1.04 ± 0.061.

How did the normalized growth turn out when CC1(C)C(C=C(Cl)Cl)C1C(=O)OC(C#N)c1cccc(Oc2ccccc2)c1 (stereo not given) was run?
The normalized growth was 0.842 ± 0.034.

For Oc1cc(Cl)ccc1Oc1ccc(Cl)cc1Cl, which normalized growth is on record?
The normalized growth was 0.00811 ± 0.00016.

How did the normalized growth turn out when C[C@]12CC[C@@H]3c4ccc(OC(=O)N(CCCl)CCCl)cc4CC[C@H]3[C@@H]1CC[C@@H]2O was run?
Its normalized growth is 0.931 ± 0.019.

For COc1ccc(O)c(C(C)(C)C)c1.COc1ccc(O)cc1C(C)(C)C, which normalized growth is on record?
The normalized growth was 1.06 ± 0.022.

With O=[N+]([O-])c1cc([As](=O)(O)O)ccc1O as the molecule, how does the normalized growth read?
Its normalized growth is 1.31 ± 0.031.

Which normalized growth does the source give for CCN1C[C@]2(COC)[C@H](O)C[C@H](OC)[C@@]34[C@@H]5C[C@@]6(O)[C@H](OC(=O)c7ccccc7)[C@@H]5[C@@](OC(C)=O)([C@@H]([C@H](OC)[C@H]23)[C@@H]14)[C@@H](O)[C@@H]6OC here?
Its normalized growth is 1.05 ± 0.017.

How did the normalized growth turn out when CC[C@@H](c1cccc(O)c1)[C@@H](C)CN(C)C was run?
The normalized growth was 0.956 ± 0.047.

With CN(C)C(=O)Oc1cc(OC(=O)N(C)C)cc(C(O)CNC(C)(C)C)c1 (stereo not given) as the molecule, how does the normalized growth read?
The normalized growth was 1 ± 0.045.

With CCn1cc(C(=O)O)c(=O)c2cc3c(cc21)OCO3 as the molecule, how does the normalized growth read?
Its normalized growth is 0.00952 ± 0.00073.

With C[N+]1(C)[C@@H]2C[C@@H](OC(=O)[C@H](CO)c3ccccc3)C[C@H]1[C@@H]1O[C@@H]12 as the molecule, how does the normalized growth read?
The normalized growth was 0.974 ± 0.03.

CCC1(c2ccc(N)cc2)CCC(=O)NC1=O (stereo not given) was tested. Which normalized growth did it give?
The normalized growth was 0.907 ± 0.025.

For CCN(C)C(=O)Oc1cccc([C@H](C)N(C)C)c1, which normalized growth is on record?
Its normalized growth is 1.03 ± 0.023.

How did the normalized growth turn out when C[C@@H]1O[C@@H](O[C@H]2C[C@@H](O)[C@]3(CO)[C@H]4[C@H](O)C[C@]5(C)[C@@H](C6=CC(=O)OC6)CC[C@]5(O)[C@@H]4CC[C@]3(O)C2)[C@H](O)[C@H](O)[C@H]1O was run?
Its normalized growth is 0.985 ± 0.0052.

With [N-]=[N+]=CC(=O)OC[C@H](N)C(=O)O as the molecule, how does the normalized growth read?
The normalized growth was 1.07 ± 0.025.

For N=C1NC(=O)N2CC12 (stereo not given), which normalized growth is on record?
Its normalized growth is 1.02 ± 0.037.

For NC(=O)C[S+]([O-])C(c1ccccc1)c1ccccc1 (stereo not given), which normalized growth is on record?
The normalized growth was 0.865 ± 0.082.

Which normalized growth does the source give for Clc1ccc(C(OCCN2CCCCC2)c2ccccc2)cc1 (stereo not given) here?
The normalized growth was 1.05 ± 0.065.

For C[C@@H](CO)NC(=O)[C@@H]1C=C2c3cccc4[nH]cc(c34)C[C@H]2N(C)C1, which normalized growth is on record?
The normalized growth was 0.9722 ± 0.0039.

For Cc1cccc(C)c1NC1=NCCCS1, which normalized growth is on record?
Its normalized growth is 0.961 ± 0.041.

With CC(=O)OCC1=C(C(=O)O)N2C(=O)[C@@H](NC(=O)CCC[C@@H](N)C(=O)O)[C@H]2SC1 as the molecule, how does the normalized growth read?
The normalized growth was 1.01 ± 0.019.

O=c1[nH]c(=O)n(Cl)c(=O)n1Cl was tested. Which normalized growth did it give?
Its normalized growth is 0.986 ± 0.075.

For NC(=O)CN1CCCC1=O, which normalized growth is on record?
The normalized growth was 1.02 ± 0.036.

With O=P1(NCCCl)OCCCN1CCCl (stereo not given) as the molecule, how does the normalized growth read?
Its normalized growth is 1.11 ± 0.053.

For Oc1ccc(Cl)cc1, which normalized growth is on record?
The normalized growth was 0.971 ± 0.012.

Which normalized growth does the source give for CC(C)c1c(CN(C)C(C)Cc2ccccc2)n(C)n(-c2ccccc2)c1=O (stereo not given) here?
Its normalized growth is 1.11 ± 0.0021.

OC[C@@H](O)[C@H]1O[C@@H]2O[C@H](C(Cl)(Cl)Cl)O[C@@H]2[C@H]1O was tested. Which normalized growth did it give?
The normalized growth was 0.939 ± 0.057.

Which normalized growth does the source give for C[N+]12CCC(CC1)C(OC(=O)C(O)(c1ccccc1)c1ccccc1)C2 (stereo not given) here?
The normalized growth was 1.05 ± 0.026.

CC(=O)[C@H]1CC[C@H]2[C@@H]3CC[C@@H]4C[C@H](O)CC[C@]4(C)[C@H]3CC[C@]12C was tested. Which normalized growth did it give?
Its normalized growth is 1.11 ± 0.052.

CC(CC(C(N)=O)(c1ccccc1)c1ccccc1)N(C)C (stereo not given) was tested. Which normalized growth did it give?
Its normalized growth is 1.03 ± 0.026.

Which normalized growth does the source give for COC(=O)C(c1ccccc1)C1CCCCN1 (stereo not given) here?
Its normalized growth is 0.96 ± 0.039.

For CO[C@]12C[C@@H](COC(=O)c3cncc(Br)c3)CN(C)[C@@H]1Cc1cn(C)c3cccc2c13, which normalized growth is on record?
The normalized growth was 0.831 ± 0.059.

With CN(C)C(=S)SSC(=S)N(C)C as the molecule, how does the normalized growth read?
Its normalized growth is 1.21 ± 0.05.

Which normalized growth does the source give for CC(C)C[C@H](CN)CC(=O)O here?
Its normalized growth is 0.979 ± 0.024.

How did the normalized growth turn out when CCC(C)(C)O was run?
Its normalized growth is 0.971 ± 0.064.

Which normalized growth does the source give for CC(C)(C)NCC(O)c1ccccc1Cl (stereo not given) here?
Its normalized growth is 1.01 ± 0.061.

With Cc1ccc(O)cc1.Cc1cccc(O)c1.Cc1ccccc1O as the molecule, how does the normalized growth read?
Its normalized growth is 0.955 ± 0.19.

Which normalized growth does the source give for CCNC1(c2cccs2)CCCCC1=O (stereo not given) here?
Its normalized growth is 1.01 ± 0.027.

For C[C@@H]1CC[C@H]2[C@@H](C)C(=O)O[C@@H]3O[C@@]4(C)CC[C@@H]1[C@]32OO4, which normalized growth is on record?
The normalized growth was 0.621 ± 0.13.

How did the normalized growth turn out when CC[C@H]1[C@@H]2C[C@H]3[C@@H]4N(C)c5ccccc5[C@]45C[C@@H]([C@@H]2[C@H]5O)N3[C@@H]1O was run?
Its normalized growth is 1.48 ± 0.1.

CC[C@H]1CN2CCc3cc(OC)c(OC)cc3[C@@H]2C[C@@H]1C[C@H]1NCCc2cc(OC)c(OC)cc21 was tested. Which normalized growth did it give?
The normalized growth was 1.2 ± 0.1.

How did the normalized growth turn out when COc1cc([C@@H]2c3cc4c(cc3[C@H](O)[C@H]3COC(=O)[C@H]23)OCO4)cc(OC)c1OC was run?
Its normalized growth is 0.966 ± 0.024.

For O=[N+]([O-])c1ccc([As](=O)(O)O)cc1, which normalized growth is on record?
The normalized growth was 1.26 ± 0.023.

How did the normalized growth turn out when CCN(C(C)=O)c1cccc(-c2ccnc3c(C#N)cnn23)c1 was run?
Its normalized growth is 1.12 ± 0.075.

CC1(C)C(C=C(Cl)Cl)C1C(=O)OCc1cccc(Oc2ccccc2)c1 (stereo not given) was tested. Which normalized growth did it give?
The normalized growth was 0.813 ± 0.031.

How did the normalized growth turn out when O=[N+]([O-])O[C@@H]1CO[C@H]2[C@@H]1OC[C@@H]2O was run?
The normalized growth was 1.11 ± 0.026.

How did the normalized growth turn out when N[C@@H](Cc1ccc(N(CCCl)CCCl)cc1)C(=O)O was run?
Its normalized growth is 1.63 ± 0.08.

Which normalized growth does the source give for CC(C)N(CCC(C(N)=O)(c1ccccc1)c1ccccn1)C(C)C (stereo not given) here?
Its normalized growth is 1.03 ± 0.031.

With C[C@H](N)[C@H](O)c1ccc(O)c(O)c1 as the molecule, how does the normalized growth read?
The normalized growth was 1.07 ± 0.018.

For N=C(N)NN, which normalized growth is on record?
The normalized growth was 0.993 ± 0.036.

With CN1[C@@H]2CC[C@H]1C[C@@H](OC(=O)[C@H](CO)c1ccccc1)C2 as the molecule, how does the normalized growth read?
Its normalized growth is 0.978 ± 0.068.

For Cc1ccc(-c2nc3ccc(C)cn3c2CC(=O)N(C)C)cc1, which normalized growth is on record?
The normalized growth was 1.1 ± 0.059.

For Nc1nc(N)nc(NC2CC2)n1, which normalized growth is on record?
The normalized growth was 1.071 ± 0.009.

How did the normalized growth turn out when Cc1cc(O)ccc1Cl was run?
The normalized growth was 0.902 ± 0.036.

For C=C(C)[C@H]1CN[C@H](C(=O)O)[C@H]1CC(=O)O, which normalized growth is on record?
Its normalized growth is 0.927 ± 0.031.

With COc1ccc(CN2CCNCC2)c(OC)c1OC as the molecule, how does the normalized growth read?
Its normalized growth is 1.06 ± 0.034.

How did the normalized growth turn out when CC[C@H]1CN2CC[C@H]1C[C@@H]2[C@@H](O)c1ccnc2ccc(OC)cc12 was run?
Its normalized growth is 0.912 ± 0.022.

How did the normalized growth turn out when C=C[C@H]1CN2CC[C@H]1C[C@H]2[C@H](OC(=O)OCC)c1ccnc2ccc(OC)cc12 was run?
The normalized growth was 1.05 ± 0.058.
